Laboratory results reported in PubChem BioAssay AID220 (DTP/NCI, 2004).
The list does not hold the whole screen: it is rich in T/C values a quarter to a half above the control, in often repeated tests (any T/C) and in doses without a T/C. Other doses and runs of a compound stand elsewhere. T/C gives the treated animals as a percentage of the vehicle group. Schedule codes are those of the source, taken here to give the interval after Q, in days (D) or hours (H), and the number of doses after X. Some doses have a count of surviving animals in place of a T/C: the source files T/C as zero there, which appears to mark a toxic dose or a test without result, not a measured value. Counts of survivors are from the toxicity check (mostly the fifth day) where no day follows; animals may have died later. Some entries hold several experiments; the results are listed from low to high.

System: CD8F1 mice, subcutaneous mammary adenocarcinoma, T/C%
Test: NCI In Vivo Anticancer Drug Screen. Data for tumor model Mammary Adenocarcinoma CD8F1 (subcutaneous) in CD8F1
Conditions: higher T/C = larger tumour
Summary of the method: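 Mice carrying transplanted tumors received test compound, and survival or tumor size was recorded. Each value is the treated-group measurement divided by the corresponding measurement in vehicle-dosed controls.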

[1] = T/C endpoint: median tumor weight change, dose: 500.0 mg/kg/injection, schedule: Q01DX001 (ip), vehicle: saline with Tween-80

COC1=C(OC)C(=O)C(Sc2ccc3ccccc3c2)=CC1=O
T/C (T/C endpoint: median tumor weight (est.), dose: 100.0 mg/kg/injection, schedule: Q07DX005 (ip), vehicle: saline with Tween-80, evaluated on day 30): 130 % of control
survivor count (T/C endpoint: median tumor weight (est.), dose: 400.0 mg/kg/injection, schedule: Q07DX005 (ip), vehicle: saline with Tween-80): 4 of 10 on day 30

Nc1nc2c(ncn2C2OC(CO)C(O)C2N)c(=O)[nH]1 (configuration not stated)
T/C (T/C endpoint: median tumor weight (est.), dose: 18.0 mg/kg/injection, schedule: Q07DX005 (ip), vehicle: saline with Tween-80, evaluated on day 30): 139 % of control

C(=N/NC1=NCCN1)/c1c2ccccc2c(/C=N\NC2=NCCN2)c2ccccc12
survivor count (T/C endpoint: median tumor weight change, dose: 200.0 mg/kg/injection, schedule: Q01DX001 (ip), vehicle: saline): 5 of 10 on day 32
survivor count (T/C endpoint: median tumor weight change, dose: 400.0 mg/kg/injection, schedule: Q01DX001 (ip), vehicle: saline): 0 of 10 on day 32

CC1(C)CC23C4COC(=O)C2CCC1C3CC4=O (configuration not stated)
T/C (T/C endpoint: median tumor weight (est.), dose: 72.0 mg/kg/injection, schedule: Q07DX005 (ip), vehicle: DMSO, evaluated on day 30): 126 % of control
survivor count (T/C endpoint: median tumor weight (est.), dose: 144.0 mg/kg/injection, schedule: Q07DX005 (ip), vehicle: DMSO): 6 of 10 on day 30

NC(N)=NOCC[C@@H](N)C(=O)O
T/C (T/C endpoint: median tumor weight change, dose: 125.0 mg/kg/injection, schedule: Q01DX001 (ip), vehicle: saline, evaluated on day 28): 149 % of control
survivor count (T/C endpoint: median tumor weight change, dose: 2000.0 mg/kg/injection, schedule: Q01DX001 (ip), vehicle: saline): 0 of 10 on day 28

Cc1cc(NCCCCCCCNc2cc(C)nc3cc(N)ccc23)c2ccc(N)cc2n1
survivor count (T/C endpoint: median tumor weight (est.), dose: 50.0 mg/kg/injection, schedule: Q07DX005 (ip), vehicle: saline with Tween-80): 4 of 10 on day 30
survivor count (T/C endpoint: median tumor weight (est.), dose: 100.0 mg/kg/injection, schedule: Q07DX005 (ip), vehicle: saline with Tween-80): 0 of 10 on day 30
survivor count (T/C endpoint: median tumor weight change, dose: 62.5 mg/kg/injection, schedule: Q01DX001 (ip), vehicle: saline with Tween-80): 0 of 10 on day 39
survivor count (T/C endpoint: median tumor weight change, dose: 125.0 mg/kg/injection, schedule: Q01DX001 (ip), vehicle: saline with Tween-80): 0 of 10 on day 39 and 1 of 10 on day 30
survivor count (T/C endpoint: median tumor weight change, dose: 250.0 mg/kg/injection, schedule: Q01DX001 (ip), vehicle: saline with Tween-80): 0 of 10 on day 39 and 2 of 10 on day 30
survivor count [1]: 0 of 10 on day 30 and 0 of 10 on day 39

CC(=O)ON(C(C)=O)c1ccc(C(N)=O)cc1
survivor count [1]: 5 of 10 on day 31
survivor count (T/C endpoint: median tumor weight change, dose: 1000.0 mg/kg/injection, schedule: Q01DX001 (ip), vehicle: saline with Tween-80): 1 of 10 on day 31
